Binding data for one substance are collected here from article PMC9475550.

Amino acid sequences for entries named in this document (tags omitted).
UniProt P61586: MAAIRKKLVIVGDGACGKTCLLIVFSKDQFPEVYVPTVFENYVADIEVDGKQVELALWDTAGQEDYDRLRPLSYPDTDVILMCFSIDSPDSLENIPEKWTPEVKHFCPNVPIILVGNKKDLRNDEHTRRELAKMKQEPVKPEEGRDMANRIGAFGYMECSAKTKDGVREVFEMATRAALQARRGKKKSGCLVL
UniProt Q9NR31: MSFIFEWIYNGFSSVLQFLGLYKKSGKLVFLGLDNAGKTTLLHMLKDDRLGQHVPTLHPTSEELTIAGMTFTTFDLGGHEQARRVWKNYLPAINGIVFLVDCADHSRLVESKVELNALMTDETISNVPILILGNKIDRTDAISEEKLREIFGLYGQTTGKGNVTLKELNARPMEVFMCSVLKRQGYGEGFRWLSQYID

No constants are given. Whether binding was seen depends on the method and setting. In cells and extracts the contact can be indirect.

In the experiment the target is RhoA (UniProt P61586). Kind of experiment: co-IP; HeLa cotransfected with GFP-tagged GTPase and Sar1A-mCherry, incubated overnight; immunoprecipitation against GFP, immunoblot with anti-mCherry. In general terms: A western blot detects proteins with antibodies after separation by electrophoresis.

Regarding “Sar1A‐mCherry (from UniProt Q9NR31 1-198)”, the binding entry was “no binding”.
